Measurements published in PMC3460625.
Results are given in words; binding and its absence hold for the method and conditions named. Some binding calls cover weakened binding; strength is not graded here.

Chains of the proteins cited; added tags and fusions are not shown. Residues count along the entry.
UniProt P52948, residues 1-880: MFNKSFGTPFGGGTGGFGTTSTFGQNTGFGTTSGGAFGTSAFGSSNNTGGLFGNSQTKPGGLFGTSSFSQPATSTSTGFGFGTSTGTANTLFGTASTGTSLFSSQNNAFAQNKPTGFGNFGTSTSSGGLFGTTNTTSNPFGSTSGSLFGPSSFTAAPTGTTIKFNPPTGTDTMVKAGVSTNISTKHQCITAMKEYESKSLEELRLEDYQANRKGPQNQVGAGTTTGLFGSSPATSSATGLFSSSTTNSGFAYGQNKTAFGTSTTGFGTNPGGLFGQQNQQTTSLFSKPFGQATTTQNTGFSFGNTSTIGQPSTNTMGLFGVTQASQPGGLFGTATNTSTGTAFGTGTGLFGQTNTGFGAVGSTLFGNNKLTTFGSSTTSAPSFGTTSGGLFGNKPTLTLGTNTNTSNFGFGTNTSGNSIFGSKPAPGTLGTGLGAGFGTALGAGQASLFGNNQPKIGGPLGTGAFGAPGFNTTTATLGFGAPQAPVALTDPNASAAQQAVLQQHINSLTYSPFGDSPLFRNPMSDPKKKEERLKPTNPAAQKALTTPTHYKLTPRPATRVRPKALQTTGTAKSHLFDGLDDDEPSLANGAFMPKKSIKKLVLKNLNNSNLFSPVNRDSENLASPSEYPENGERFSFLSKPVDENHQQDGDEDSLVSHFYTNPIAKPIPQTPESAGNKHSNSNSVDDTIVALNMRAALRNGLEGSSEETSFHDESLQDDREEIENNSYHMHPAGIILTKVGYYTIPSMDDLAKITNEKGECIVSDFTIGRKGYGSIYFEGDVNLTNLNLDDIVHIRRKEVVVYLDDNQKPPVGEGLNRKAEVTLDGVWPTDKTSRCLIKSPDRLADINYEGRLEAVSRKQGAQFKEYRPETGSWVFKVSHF

Legend:
[1] = target: Nup98 (endogenous) (human (endogenous in HEK 293 and HeLa)) (UniProt P52948); assay: SEC
[2] = target: Nup98 (endogenous) (human (endogenous in HEK 293 and HeLa)) (UniProt P52948); assay: sucrose gradient sedimentation

B1: Rae1 (endogenous) (protein, UniProt P78406 1-368)
chain: MSLFGTTSGFGTSGTSMFGSATTDNHNPMKDIEVTSSPDDSIGCLSFSPPTLPGNFLIAGSWANDVRCWEVQDSGQTIPKAQQMHTGPVLDVCWSDDGSKVFTASCDKTAKMWDLSSNQAIQIAQHDAPVKTIHWIKAPNYSCVMTGSWDKTLKFWDTRSSNPMMVLQLPERCYCADVIYPMAVVATAERGLIVYQLENQPSEFRRIESPLKHQHRCVAIFKDKQNKPTGFALGSIEGRVAIHYINPPNPAKDNFTFKCHRSNGTNTSAPQDIYAVNGIAFHPVHGTLATVGSDGRFSFWDKDARTKLKTSEQLDQPISACCFNHNGNIFAYASSYDWSKGHEFYNPQKKNYIFLRNAAEELKPRNKK
- binding [1]: binds
- binding [2]: binds
